# The list shows a part of the results.
# B1: RobpsCRA (Robinia pseudoacacia) (protein)
# chain: IKGGYWYSGSGLAVSDINPSHFTHLFCAFADLDPNTNKLTISSSNAAAFSTFTQTVRAKNPSVKTLLSIGGGGGRALAAVFANMASQASRRKSFIDSSIQLARRNNFHGLDLDWEYPSSDIDKTNFASLIREWRAAVATESSTSGTPALLLSAAVGGSDQITPLKYYPGEAIANNLDWVNVMTYDLYTSDSYPTLTQPPAPLFYPRGIFSADEGITKWIQSGVPESKLALGLPFYGFKWRLSDPNNHGLFAPATQGLGAVKYKDIVNTGGQVEFDSTYVTNYCFKGTDWYGYDDTQSISAKVAYAKQRGLFGYFAWHIEQDSNWALS
# How the values were obtained:
# Assay in all cases: glycan array binding signal (z-score within array); higher = stronger binding
# Details in all cases: glycan notation: IUPAC condensed, linker removed
# Gal(b1-4)Glc = target: Gal(b1-4)Glc
# In short: (§1)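 Negative Z-scores can be read as non-binding. The Z-score is calculated within each array and then averaged across arrays of one protein sequence at different concentrations or buffers and across linkers. Arrays, 3228 in all, were curated from the Consortium for Functional Glycomics database and kept only where the protein sequence was available.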
# Gal(b1-4)Glc6S = target: Gal(b1-4)Glc6S
# In short: as §1
# Gal(b1-4)GlcNAc = target: Gal(b1-4)GlcNAc
# In short: as §1
# [1] = target: Gal(b1-4)GlcNAc(a1-6)Gal(b1-4)GlcNAc
# In short: as §1
# Gal(b1-4)GlcNAc(b1-2)Man = target: Gal(b1-4)GlcNAc(b1-2)Man
# In short: as §1
# [2] = target: Gal(b1-4)GlcNAc(b1-2)Man(a1-3)Man(b1-4)GlcNAc(b1-4)GlcNAc
# In short: as §1
# [3] = target: Gal(b1-4)GlcNAc(b1-2)Man(a1-3)[Gal(b1-4)GlcNAc(b1-2)Man(a1-6)]Man(b1-4)GlcNAc(b1-4)GlcNAc
# In short: as §1
# [4] = target: Gal(b1-4)GlcNAc(b1-2)Man(a1-3)[Gal(b1-4)GlcNAc(b1-2)Man(a1-6)]Man(b1-4)GlcNAc(b1-4)[Fuc(a1-6)]GlcNAc
# In short: as §1
# [5] = target: Gal(b1-4)GlcNAc(b1-2)Man(a1-3)[Gal(b1-4)GlcNAc(b1-2)Man(a1-6)][Gal(b1-4)GlcNAc(b1-4)]Man(b1-4)GlcNAc(b1-4)[Fuc(a1-6)]GlcNAc
# In short: as §1
# [6] = target: Gal(b1-4)GlcNAc(b1-2)Man(a1-3)[Gal(b1-4)GlcNAc(b1-2)Man(a1-6)][GlcNAc(b1-4)]Man(b1-4)GlcNAc(b1-4)[Fuc(a1-6)]GlcNAc
# In short: as §1
# [7] = target: Gal(b1-4)GlcNAc(b1-2)Man(a1-3)[GlcNAc(b1-2)Man(a1-6)]Man(b1-4)GlcNAc(b1-4)GlcNAc
# In short: as §1
# [8] = target: Gal(b1-4)GlcNAc(b1-2)Man(a1-3)[GlcNAc(b1-4)][Gal(b1-4)GlcNAc(b1-2)Man(a1-6)]Man(b1-4)GlcNAc(b1-4)GlcNAc
# In short: as §1
# [9] = target: Gal(b1-4)GlcNAc(b1-2)Man(a1-3)[Man(a1-6)]Man(b1-4)GlcNAc(b1-4)GlcNAc
# In short: as §1
# [10] = target: Gal(b1-4)GlcNAc(b1-2)Man(a1-6)Man(b1-4)GlcNAc(b1-4)GlcNAc
# In short: as §1
# [11] = target: Gal(b1-4)GlcNAc(b1-2)Man(a1-6)[GlcNAc(b1-2)Man(a1-3)]Man(b1-4)GlcNAc(b1-4)GlcNAc
# In short: as §1
# [12] = target: Gal(b1-4)GlcNAc(b1-2)Man(a1-6)[Man(a1-3)]Man(b1-4)GlcNAc(b1-4)GlcNAc
# In short: as §1
# [13] = target: Gal(b1-4)GlcNAc(b1-2)[Gal(b1-4)GlcNAc(b1-4)]Man(a1-3)[Gal(b1-4)GlcNAc(b1-2)Man(a1-6)]Man(b1-4)GlcNAc(b1-4)GlcNAc
# In short: as §1
# [14] = target: Gal(b1-4)GlcNAc(b1-2)[Gal(b1-4)GlcNAc(b1-4)]Man(a1-3)[Gal(b1-4)GlcNAc(b1-2)[Gal(b1-4)GlcNAc(b1-6)]Man(a1-6)]Man(b1-4)GlcNAc(b1-4)GlcNAc
# In short: as §1
# [15] = target: Gal(b1-4)GlcNAc(b1-2)[Gal(b1-4)GlcNAc(b1-4)]Man(a1-3)[GlcNAc(b1-4)][Gal(b1-4)GlcNAc(b1-2)Man(a1-6)]Man(b1-4)GlcNAc(b1-4)GlcNAc
# In short: as §1
# [16] = target: Gal(b1-4)GlcNAc(b1-2)[Gal(b1-4)GlcNAc(b1-4)]Man(a1-3)[GlcNAc(b1-4)][Gal(b1-4)GlcNAc(b1-2)[Gal(b1-4)GlcNAc(b1-6)]Man(a1-6)]Man(b1-4)GlcNAc(b1-4)GlcNAc
# In short: as §1
# [17] = target: Gal(b1-4)GlcNAc(b1-2)[Gal(b1-4)GlcNAc(b1-6)]Man(a1-6)[Gal(b1-4)GlcNAc(b1-2)Man(a1-3)]Man(b1-4)GlcNAc(b1-4)GlcNAc
# In short: as §1
# [18] = target: Gal(b1-4)GlcNAc(b1-2)[Gal(b1-4)GlcNAc(b1-6)]Man(a1-6)[Gal(b1-4)GlcNAc(b1-2)Man(a1-3)]Man(b1-4)GlcNAc(b1-4)[Fuc(a1-6)]GlcNAc
# In short: as §1
binder,measurement,setting,value
B1,glycan array binding signal (z-score),Gal(b1-4)Glc,-0.271
same,glycan array binding signal (z-score),Gal(b1-4)Glc6S,0.053
same,glycan array binding signal (z-score),Gal(b1-4)GlcNAc,-0.616
same,glycan array binding signal (z-score),[1],-0.885
same,glycan array binding signal (z-score),Gal(b1-4)GlcNAc(b1-2)Man,0.089
same,glycan array binding signal (z-score),[2],-0.532
same,glycan array binding signal (z-score),[3],-0.393
same,glycan array binding signal (z-score),[4],0.387
same,glycan array binding signal (z-score),[5],-0.956
same,glycan array binding signal (z-score),[6],0.589
same,glycan array binding signal (z-score),[7],-0.923
same,glycan array binding signal (z-score),[8],-0.771
same,glycan array binding signal (z-score),[9],-0.195
same,glycan array binding signal (z-score),[10],-0.656
same,glycan array binding signal (z-score),[11],0.209
same,glycan array binding signal (z-score),[12],0.031
same,glycan array binding signal (z-score),[13],-0.651
same,glycan array binding signal (z-score),[14],-0.233
same,glycan array binding signal (z-score),[15],-0.448
same,glycan array binding signal (z-score),[16],0.425
same,glycan array binding signal (z-score),[17],-0.824
same,glycan array binding signal (z-score),[18],1.6

# Not a retest: an excerpt of the list.
binder,measurement,setting,value
B1,glycan array binding signal (z-score),[16],0.425
same,glycan array binding signal (z-score),[17],-0.824
